Earlier results in patent US6468757B2, “Method for determining drug-serum protein binding” (priority 2000, dated 2002).

Settings: human plasma; data from Goodman and Gilman's 1996; cited from earlier work

Structure (SMILES): CN1C(=O)CN=C(c2ccccc2)c2cc(Cl)ccc21 [Diazepam, diazepam]
- % Bound in Plasma: 98.7 ± 0.2%
